According to PubChem BioAssay AID504467 (National Center for Advancing Translational Sciences (NCATS), 2011):
Out of some 330,000 compounds screened, about 7,700 (2.3%) were called active. Inconclusive means that the source gave no clear call. Such entries were picked first, then a sample of the others. The call rests on the fitted dose curve; in most records, active means well fitted inhibition curve with a large enough effect; inconclusive means small, poorly fitted or top-dose-only effect, or effect the other way; inactive means flat fitted curve, though single readings scatter. Potencies of inconclusive entries are doubtful fits and often do not repeat.

Assay: qHTS screen for small molecules that inhibit ELG1-dependent DNA repair in human embryonic kidney (HEK293T) cells expressing luciferase-tagged ELG1; further: nearly all actives have a fitted effect of over 55% in size
Conditions: HEK293T ELG1-luciferase reporter, luminescence, 16 h, DNA damage induced by 5-fluorouridine; activity change, negative = inhibition: at 46.1 µM (top of the series)
Outline: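 Cells (2,000 per well) received 5-fluorouridine plus test compound or DMSO and were incubated 16 hr at 37 °C, 5% CO2. Luciferase activity was read by luminescence 30 min after ONE-Glo addition; signal suppression marked inhibition of damage-induced ELG1 function.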
On the % scale 0 is the no-effect control and ±100 the full control effect; potency means the concentration at half of the fitted maximal effect.

Row | SMILES | activity change, negative = inhibition | Potency
1 | Nc1ncnc2c1ncn2[C@@H]1O[C@H](CN2CCCS2(=O)=O)[C@@H](O)[C@H]1O | inactive: -0.993% | 
2 | CCOC(=O)c1c(-c2ccccc2)nc2ccc(Cl)cn12 | inactive: -7.56% | 
3 | CN(c1ccccc1)S(=O)(=O)c1cccc(NC(=O)c2ccc(Cl)c([N+](=O)[O-])c2)c1 |  | active: 20.6 µM
4 | CC(C)Cn1c(O)c(/C=C2\C=NN=C2c2ccccc2)sc1=S |  | inconclusive: 18.4 µM [inhibitor, partial curve, poor fit]
5 | Cn1nnc2cc(C(=O)Nc3ccccc3)ccc21 |  | inconclusive: 20.6 µM [activator, partial curve]
6 | COc1ccc(C(=O)c2ccccc2)cc1 |  | inconclusive: 18.3 µM [activator, partial curve, poor fit]
7 | O=C(Nc1ccc2c(c1)C(=O)NC2=O)c1ccccc1Cl | inactive: 1.59% | 
8 | COC(=O)Nc1nnc(/C=C/c2ccccc2)s1 |  | inconclusive: 14.6 µM [activator, partial curve]
9 | Cc1cccc(NC(=O)Cc2noc3ccccc23)c1C |  | inconclusive: 16.4 µM [activator, single point]
10 | O=C(CCc1ccccc1)Nc1ccc(N2CCCCC2)cc1 |  | inconclusive: 13 µM [activator, partial curve]
11 | O=C(N/N=C/c1cccs1)c1[nH]ncc1Br |  | inconclusive: 20.6 µM [activator, partial curve]
12 | O=C(CCc1ccccc1)OCC(=O)c1cccc([N+](=O)[O-])c1 | inactive: -3.74% | 
13 | COC(=O)c1ccc(CSC2=NC[C@@H]3[C@@H]4C(=O)N(Cc5ccccc5)C(=O)[C@@H]4[C@](Cc4ccccc4)(C(=O)OC)N23)cc1 |  | inconclusive: 8.2 µM [inhibitor, partial curve, poor fit]
14 | O=C(CN1C(=O)N/C(=C\c2ccccc2OCc2ccc(C(=O)O)cc2)C1=O)Nc1ccccc1F | inactive: 3.17% | 
15 | O=C(CCCc1nc(-c2ccccc2)no1)NC1CCCCC1 | inactive: -13.7% | 
16 | COC(=O)c1cc(=O)n(CCc2ccccc2F)c(=Nc2ccc(F)c(Cl)c2)s1 |  | inconclusive: 23.1 µM [inhibitor, single point]
17 | CN(CCOC(=O)c1cccc(F)c1)Cc1ccccc1 | inactive: -0.75% | 
18 | CC(=O)NC(CCS(C)(=O)=O)C(=O)Nc1cc(Cl)ccc1Cl (configuration not stated) | inactive: 13.3% | 
19 | CCC(C)C1Nc2ccc(C(=O)NCCc3ccc(OC)c(OC)c3)cc2NC1=O (configuration not stated) |  | inconclusive: 23.1 µM [inhibitor, single point]
20 | CS(=O)(=O)N(Cc1ccccc1)c1ccc(C(=O)N2CCc3ccccc3C2)cc1 |  | inconclusive: 16.4 µM [inhibitor, partial curve]
21 | CCCCOc1cccc(C(=O)NNC(=S)NC2CCCCC2)c1 |  | inconclusive: 20.6 µM [inhibitor, partial curve]
22 | Cc1ccc(C2=NNC3(CCOC(C)(C)C3)S2)cc1 (configuration not stated) |  | inconclusive: 5.8 µM [activator, full curve]
23 | COc1cc(C(=O)NCc2ccccc2)cc(Br)c1OC |  | active: 3.66 µM
24 | COc1cc2nc(CSc3nc(-c4ccc(F)cc4)cs3)[nH]c(=O)c2cc1OC |  | active: 23.1 µM

Row | SMILES | activity change, negative = inhibition | Potency
25 | COc1cc(OC)c(NC(=O)CNC(=O)Cn2ccc3ccccc3c2=O)cc1Cl | inactive: 6.13% | 
26 | OCCCNc1ncnc2sc(-c3ccccc3)cc12 |  | inconclusive: 20.6 µM [inhibitor, single point]
27 | Cc1ccc(Nc2nc(Nc3ccc(C)cc3)nc(SC3=NCCS3)n2)cc1 |  | inconclusive: 18.4 µM [inhibitor, single point]
28 | COc1cccc(C(=O)NCCn2ccc3ccccc32)c1 |  | inconclusive: 9.2 µM [activator, partial curve]
29 | COC(=O)c1ccc(NC(=S)Nc2ccc3ccccc3c2)cc1 |  | inconclusive: 32.6 µM [activator, single point]
30 | OCCSc1ncnc2c1oc1ccccc12 |  | inconclusive: 32.6 µM [activator, single point]
31 | Cc1ccc(S(=O)(=O)N2CCCCC2)cc1NC(=O)COc1ccccc1F | inactive: 4.05% | 
32 | Cn1cc(C(=O)Nc2ccccn2)c(=O)c2ccccc21 |  | inconclusive: 16.4 µM [activator, single point]
33 | CSc1ncccc1C(=O)Nc1ccccc1N1CCOCC1 | inactive: -0.47% | 
34 | Nc1ccc2nc(NC(=O)C3CCCCC3)sc2c1 |  | inconclusive: 3.66 µM [activator, full curve]
35 | O=C1NC(=S)N/C1=C/c1cccc2ccccc12 |  | inconclusive: 18.3 µM [activator, single point]
36 | O=C1NCCN1c1ncc([N+](=O)[O-])s1 | inactive: -0.0023% | 
37 | CN1CCc2c(sc3c2C(=O)NC(c2ccc4c(c2)OCO4)N3)C1 (configuration not stated) | inactive: -3.4% | 
38 | Cc1ccc(-c2nn(C)c(=O)c3ccccc23)cc1CN1CCOCC1 |  | inconclusive: 2.06 µM [activator, partial curve]
39 | N#Cc1c(-c2ccccc2)cc2nc3ccccc3n2c1N |  | inconclusive: 10.3 µM [activator, partial curve, poor fit]
40 | C=CCNC(=O)C(=O)NCC(c1ccc2c(c1)OCO2)N1CCN(c2ccc(F)cc2)CC1 (configuration not stated) | inactive: -7.56% | 
41 | Cc1ccc(-n2cnc3sc(C)c(C)c3c2=O)cc1 |  | inconclusive: 23.1 µM [activator, partial curve]
42 | CCOCC(=O)Nc1ccc(C)c(Cl)c1 |  | inconclusive: 20.6 µM [activator, partial curve, poor fit]
43 | CC(C)CCn1c(CN2CCN(Cc3ccccc3)CC2)nc2c1c(=O)n(C)c(=O)n2C |  | inconclusive: 20.6 µM [inhibitor, partial curve]
44 | Cn1c(CCNC(=O)c2ccco2)nc2cc(NC(=O)c3ccco3)ccc21 |  | inconclusive: 18.4 µM [activator, partial curve]
45 | COc1ccc(NC(=O)Cc2ccccc2F)cc1S(=O)(=O)N1CCCCC1 |  | inconclusive: 18.3 µM [inhibitor, single point]
46 | C/C(=N\Nc1nc(C)cc(-c2ccccc2)n1)c1ccc(O)cc1 |  | inconclusive: 18.3 µM [inhibitor, partial curve, poor fit]
47 | Cc1coc2c1c(C)cc1oc(=O)c(CC(=O)NCCCN3CCCC3=O)c(C)c12 | inactive: 1.2% | 

4 records drawn at random from those above:
Row | SMILES | activity change, negative = inhibition | Potency
7 | O=C(Nc1ccc2c(c1)C(=O)NC2=O)c1ccccc1Cl | inactive: 1.59% | 
39 | N#Cc1c(-c2ccccc2)cc2nc3ccccc3n2c1N |  | inconclusive: 10.3 µM [activator, partial curve, poor fit]
27 | Cc1ccc(Nc2nc(Nc3ccc(C)cc3)nc(SC3=NCCS3)n2)cc1 |  | inconclusive: 18.4 µM [inhibitor, single point]
4 | CC(C)Cn1c(O)c(/C=C2\C=NN=C2c2ccccc2)sc1=S |  | inconclusive: 18.4 µM [inhibitor, partial curve, poor fit]
